Measured values published in PubChem BioAssay AID504834 (National Center for Advancing Translational Sciences (NCATS), 2011).
The whole screen tested about 320,000 compounds, of which about 22,000 (6.9%) were called active. This list was built around the results that the source calls inconclusive (neither active nor inactive); the mix of calls is not that of the screen. Calls follow the shape of the dose curve; as a rule, active = well fitted inhibition curve with a large enough effect; inconclusive = small, poorly fitted or top-dose-only effect, or another doubt; inactive = no such curve, though single readings can be large or run the other way. Where the call is inconclusive, the potency comes from a doubtful curve fit.
% is scaled to controls: 0 for no effect and ±100 for the full control effect; potency is read from the fitted curve at half-maximal effect.

Assay: Primary qHTS for delayed death inhibitors of the malarial parasite plastid, 96 hour incubation
Conditions: P. falciparum luciferase reporter growth; series mostly up to 28.7 µM; activity change, negative = inhibition: at the top concentration
Method in brief: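 Infected RBCs, 2% Hct / 0.05% parasitemia final; luciferase-reporter P. falciparum; cpd 96 h, 37 C, 5% CO2; luciferase detection reagent; luminescence.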
With `C=CCn1c(SCC(=O)NC2CCCC2)nc2sc(C)cc2c1=O` the Potency was active: 6.57 µM.
For `CN(C1CCCCC1)S(=O)(=O)c1ccc(NC(=O)c2ccc(Br)o2)cc1`, the “activity change, negative = inhibition” value was inactive: 9.08%.
In the case of `COC(=O)c1c(NC(=O)c2ccco2)sc2c1CCN(C(C)C)C2`, the Potency is reported as inconclusive: 14.7 µM [inhibitor, partial curve, poor fit].
For `CCOC(=O)Cn1nc(-c2ccccc2)c2cnc3ccc(CC)cc3c21`, the Potency was inconclusive: 18.5 µM [inhibitor, single point].
For `CCSC1(SCC)N=C(N)C2(C#N)C(c3ccc(F)cc3)C12C#N` (centres undefined), the Potency was inconclusive: 1.04 µM [inhibitor, full curve, poor fit].
For `COc1ccc(N2CCN(S(=O)(=O)c3ccc(OC)c(C(=O)N4CCCCC4)c3)CC2)cc1`, the “activity change, negative = inhibition” value was inactive: 10.5%.
In the case of `O=C(OCC(=O)N1CCc2ccccc21)c1cccc(S(=O)(=O)N2CCCc3ccccc32)c1`, the Potency is reported as inconclusive: 0.0033 µM [inhibitor, full curve, poor fit].
For `O=c1oc2c(CN3CCOCC3)c(O)ccc2c2c1CCCC2`, the activity change, negative = inhibition was inactive: -0.807% [at 5.75 µM].
For `OC(CNCc1ccccn1)c1ccccc1` (centres undefined), the “activity change, negative = inhibition” value was inactive: -10.4%.
For `Cc1onc(-c2ccc(Cl)cc2Cl)c1-c1csc(N/N=C/c2ccccc2Cl)n1`, the Potency was inconclusive: 6.57 µM [inhibitor, partial curve, poor fit].
With `COC(=O)c1ccc(COc2cc([N+](=O)[O-])cc3cccnc23)cc1` the “activity change, negative = inhibition” value was inactive: 105%.
In the case of `O=C(Oc1ccc(/C=N/NC(=O)c2ccccn2)cc1)c1cccc(Br)c1`, the “activity change, negative = inhibition” value is reported as inactive: -6.79%.
For `CC(C)Nc1nc(-c2ccncc2)nc(-c2ccc(Cl)cc2)c1C#N`, the Potency was inconclusive: 4.15 µM [inhibitor, single point].
For `CN1/C(=C\C(=O)Nc2ccc(Br)cc2)C(C)(C)c2ccccc21`, the “activity change, negative = inhibition” value was inactive: 23.5%.
For `Cc1cccc(C(=O)Nc2ccc(C(=O)/C=C/c3cccnc3)cc2)c1`, the “activity change, negative = inhibition” value was inactive: 3.65%.
For `COc1ccc2cc(CN(CC3CCCO3)C(=O)Nc3ccccc3)c(=O)[nH]c2c1` (centres undefined), the “activity change, negative = inhibition” value was inactive: 38.1%.
For `Cc1ccc(-c2nnn(CC(=O)N3c4ccccc4CCc4ccccc43)n2)cc1`, the Potency was inconclusive: 18.5 µM [inhibitor, single point].
In the case of `O=C(O)CC1CCCC(c2ccccc2)C1=O` (centres undefined), the Potency is reported as active: 13.1 µM.
For `Cc1cccc(OCC(O)CN2CCN(C3CCCCC3)CC2)c1` (centres undefined), the Potency was inconclusive: 4.15 µM [inhibitor, partial curve, poor fit].
In the case of `COCC(=O)NCc1ccc2c(c1)cc(C)n2C`, the Potency is reported as active: 4.65 µM.
With `CC(=O)Nc1ccc(N2C(=O)c3cccc4c(O)ccc(c34)C2=O)cc1` the “activity change, negative = inhibition” value was inactive: 21.7%.
For `CC1CCCN(c2nc(-c3cccnc3)nc3scc(-c4ccccc4)c23)C1` (centres undefined), the Potency was inconclusive: 1.47 µM [inhibitor, full curve, poor fit].
In the case of `COc1ccccc1N1CCN(C(=O)c2ccc3c(c2)CCN3S(=O)(=O)c2ccccc2)CC1`, the Potency is reported as inconclusive: 18.5 µM [inhibitor, single point].
For `CC(C)(C)c1ccc(C(=O)NC(=S)NCc2ccco2)cc1`, the “activity change, negative = inhibition” value was inactive: 10.1%.
For `Cc1ccc(SC2=C(Sc3ccc(C)cc3)C(=O)c3ccccc3C2=O)cc1`, the Potency was active: 0.738 µM.
In the case of `CC(=O)N(C)C1=C(O)c2ccccc2C(=O)C1=O`, the Potency is reported as inconclusive: 5.22 µM [inhibitor, single point].
With `CCOC(=O)c1c(C)[nH]c(C(=O)NCCc2ccc(OC)c(OC)c2)c1C` the Potency was inconclusive: 18.5 µM [inhibitor, single point].
With `CCOc1ccc(S(=O)(=O)N2CCN(c3ccccc3F)CC2)c2cccnc12` the “activity change, negative = inhibition” value was inactive: -24.2%.
For `C=CCn1c(-c2cccc([N+](=O)[O-])c2)n[nH]c1=S`, the Potency was inconclusive: 2.62 µM [inhibitor, full curve, poor fit].
In the case of `CC1Cc2nc(SCC(=O)Nc3nccs3)n(C)c(=O)c2S1` (centres undefined), the Potency is reported as inconclusive: 18.5 µM [inhibitor, single point].
With `CC(C)c1[nH]nc2c1C(c1cccc(OC(=O)N3CCOCC3)c1)C(C#N)=C(N)O2` (centres undefined) the Potency was active: 11.7 µM.
For `O=C(Cn1cnc2ccccc2c1=O)Nc1ccc2c(c1)OCO2`, the “activity change, negative = inhibition” value was inactive: 132%.
With `FC(F)(F)c1ccc(/C=N/n2c(C3CCCCC3)n[nH]c2=S)cc1` the Potency was inconclusive: 18.5 µM [inhibitor, single point].
For `CCc1ccc(N2CC(C(=O)OCc3nc4ccsc4c(=O)[nH]3)CC2=O)cc1` (centres undefined), the “activity change, negative = inhibition” value was inactive: 37.5%.
With `COc1ccc(NC(=O)COc2ccccc2Cl)cc1S(=O)(=O)N1CCCCC1` the Potency was active: 10.4 µM.
In the case of `CCN1CCN(CC(=O)N2N=C(c3ccc(OC)cc3)CC2c2ccc(OC)cc2)C(=O)C1=O` (centres undefined), the Potency is reported as inconclusive: 2.33 µM [inhibitor, single point].
For `COc1ccccc1C(=O)NCC(=O)n1nc(C)cc1C`, the Potency was active: 13.1 µM.
In the case of `Cc1noc(C)c1COC(=O)c1ccc(-c2nc3ccccc3s2)s1`, the Potency is reported as inconclusive: 4.15 µM [inhibitor, single point].
In the case of `CCC(=O)N1CCc2cc(S(=O)(=O)NC(CC(C)C)C(=O)N3CCc4ccccc43)ccc21` (centres undefined), the Potency is reported as inconclusive: 3.29 µM [inhibitor, single point].
In the case of `O=C(Nc1ccccc1N1CCOCC1)c1cccc2c(Br)cccc12`, the “activity change, negative = inhibition” value is reported as inactive: -21.1%.
In the case of `CC(=O)Nc1ccc(NC(=O)C(C)OC(=O)CNC(=O)c2ccc(-c3ccccc3)cc2)cc1` (centres undefined), the “activity change, negative = inhibition” value is reported as inactive: 37.9%.
In the case of `COC(=O)CSc1nc2cc3c(cc2cc1C)OCCO3`, the Potency is reported as inconclusive: 0.294 µM [inhibitor, full curve, poor fit].
In the case of `O=C(Nc1ccc(F)cc1)Nc1csc2ccccc12`, the Potency is reported as inconclusive: 18.5 µM [inhibitor, single point].
In the case of `Cc1ccc(CN2C(=O)CCC2C(=O)NC2CC2)cc1` (centres undefined), the Potency is reported as inconclusive: 18.5 µM [inhibitor, partial curve, poor fit].
With `Cc1nn(-c2ccccc2)c(=O)c2noc(C)c12` the “activity change, negative = inhibition” value was inactive: 24.6%.
In the case of `COc1ccc(CC(=O)OCC(=O)Nc2ccc(Br)cc2)cc1`, the “activity change, negative = inhibition” value is reported as inactive: 40.2%.
With `Cc1ccc(S(=O)(=O)NCCC(=O)NNC(=O)COc2ccc(Br)cc2)cc1C` the Potency was inconclusive: 1.65 µM [inhibitor, partial curve, poor fit].
For `CCOC(=O)C1C(C(=O)OCC)C1(c1ccccc1)c1ccccc1` (centres undefined), the “activity change, negative = inhibition” value was inactive: 3.37%.
With `CC1(C)CC(=O)C=C(c2ccc3ncccc3c2)C1` the “activity change, negative = inhibition” value was inactive: -12.4%.
In the case of `Cc1ccccc1OCC(=O)NNC=O`, the Potency is reported as inconclusive: 0.0522 µM [inhibitor, full curve, poor fit].
For `CC1(C)SC(=S)N(NC(=O)Nc2ccccc2)C1N(O)C(=O)Nc1cccc2ccccc12` (centres undefined), the Potency was inconclusive: 7.38 µM [inhibitor, single point].
For `CCOC(=O)N1CCN(C(=O)c2cc(COc3ccc(F)cc3F)on2)CC1`, the Potency was inconclusive: 18.5 µM [inhibitor, partial curve, poor fit].
For `Fc1ccc(OCc2cc(-c3ccccc3)no2)cc1`, the “activity change, negative = inhibition” value was inactive: 81.5%.
In the case of `Cc1c(NC(=O)C2(c3ccccc3)CCOCC2)c(=O)n(-c2ccccc2)n1C`, the “activity change, negative = inhibition” value is reported as inactive: 10.8%.
With `O=C(Nc1ccc([N+](=O)[O-])cc1)c1ccccc1` the Potency was inconclusive: 13.1 µM [inhibitor, partial curve].
With `CCOC(=O)C1CCCN(CCC(=O)Nc2cccc(Cl)c2C)C1` (centres undefined) the “activity change, negative = inhibition” value was inactive: 25.9%.
For `COCCn1c(CCC(=O)O)ccc1-c1cccs1`, the Potency was inconclusive: 5.86 µM [inhibitor, partial curve, poor fit].
For `CC(=O)N1NC(=Nc2ccccc2)SC1(C)C`, the “activity change, negative = inhibition” value was inactive: 0%.
In the case of `CC1CCCCN1C(=O)CSc1nnc2c(n1)[nH]c1ccccc12` (centres undefined), the Potency is reported as active: 11.7 µM.
With `COc1ccc(S(=O)(=O)N2CCCOC2CNC(=O)C(=O)NCc2ccco2)cc1C` (centres undefined) the Potency was inconclusive: 0.233 µM [inhibitor, partial curve, poor fit].
For `Nc1ccccc1Sc1ccc(C(=O)c2ccccc2C(=O)O)cc1[N+](=O)[O-]`, the Potency was inconclusive: 0.104 µM [inhibitor, full curve, poor fit].
In the case of `COC(=O)c1nc2ccc(N3CCOCC3)cc2c(C)c1C(=O)OC`, the “activity change, negative = inhibition” value is reported as inactive: 385%.
In the case of `NC(=O)c1nn(-c2ccc(Cl)cc2Cl)c(=O)cc1O`, the Potency is reported as inconclusive: 18.5 µM [inhibitor, single point].
In the case of `COc1cccc(CN(C)C(=O)c2cccc(S(=O)(=O)N3CCN(c4ccc(F)cc4)CC3)c2)c1OC`, the Potency is reported as inconclusive: 8.28 µM [inhibitor, partial curve].
For `CCn1c(=O)cc(OCC(=O)NCCc2cccc(C)c2)c2ccccc21`, the “activity change, negative = inhibition” value was inactive: -5.09%.
For `CC(C)Cc1cc(C(=O)N2CCCC(CO)(Cc3ccc(F)cc3F)C2)n[nH]1` (centres undefined), the Potency was inconclusive: 11.7 µM [inhibitor, single point].
With `Cc1cc(C)n(-c2ccc(C(=O)N3CCc4ccccc43)cc2)n1` the “activity change, negative = inhibition” value was inactive: 9.7%.
For `Cc1ccc(C(C)C)cc1OCC(=O)Nc1ccccc1N1CCCC1`, the Potency was inconclusive: 18.5 µM [inhibitor, single point].
In the case of `CCc1c(C)nc2ncnn2c1N1CCC(C(=O)N2CCN(c3ccccc3)CC2)CC1`, the Potency is reported as inconclusive: 0.0329 µM [inhibitor, full curve, poor fit].
For `CC1CCN(c2c(NCC3CCC(C(=O)NCc4ccccc4)CC3)c(=O)c2=O)CC1` (centres undefined), the “activity change, negative = inhibition” value was inactive: 18.2%.
For `COc1ccc(C(=O)NCC(=O)OCc2nc(N)nc(Nc3ccccc3C)n2)cc1`, the Potency was inconclusive: 18.5 µM [inhibitor, single point].
With `O=C(CCCCCNc1nc(=S)[nH]c2ccccc12)NCc1ccccc1Cl` the Potency was inconclusive: 18.5 µM [inhibitor, single point].
With `C=CCN1C(=O)C(CC(=O)Nc2ccc(C)cc2)SC1=Nc1c(C)n(C)n(-c2ccccc2)c1=O` (centres undefined) the Potency was inconclusive: 11.7 µM [inhibitor, partial curve, poor fit].
In the case of `Cc1cc(NC(=O)CN2CCOCC2)n(-c2ccccc2)n1`, the “activity change, negative = inhibition” value is reported as inactive: -24.5%.
